Assay results from PMC8563940 (Scientific Reports, 2021).

Amino acid sequences for entries named in this document (tags omitted). Residues count along the entry.
UniProt P06276, 29-602: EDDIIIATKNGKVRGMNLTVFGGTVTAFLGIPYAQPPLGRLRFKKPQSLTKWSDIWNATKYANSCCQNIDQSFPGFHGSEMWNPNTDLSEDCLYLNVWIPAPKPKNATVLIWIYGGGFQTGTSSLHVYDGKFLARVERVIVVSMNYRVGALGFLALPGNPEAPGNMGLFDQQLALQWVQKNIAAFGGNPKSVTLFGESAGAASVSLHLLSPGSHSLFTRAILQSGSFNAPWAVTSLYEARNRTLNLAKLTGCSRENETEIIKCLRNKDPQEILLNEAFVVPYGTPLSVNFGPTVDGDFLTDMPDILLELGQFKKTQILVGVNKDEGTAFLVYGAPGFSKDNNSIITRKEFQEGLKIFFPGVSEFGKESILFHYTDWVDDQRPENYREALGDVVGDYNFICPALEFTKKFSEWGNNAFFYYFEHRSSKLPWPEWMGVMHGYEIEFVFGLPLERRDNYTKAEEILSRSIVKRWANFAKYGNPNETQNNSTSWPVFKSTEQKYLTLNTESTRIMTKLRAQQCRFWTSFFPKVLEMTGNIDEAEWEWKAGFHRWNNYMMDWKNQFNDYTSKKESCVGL
UniProt P22303, 32-614: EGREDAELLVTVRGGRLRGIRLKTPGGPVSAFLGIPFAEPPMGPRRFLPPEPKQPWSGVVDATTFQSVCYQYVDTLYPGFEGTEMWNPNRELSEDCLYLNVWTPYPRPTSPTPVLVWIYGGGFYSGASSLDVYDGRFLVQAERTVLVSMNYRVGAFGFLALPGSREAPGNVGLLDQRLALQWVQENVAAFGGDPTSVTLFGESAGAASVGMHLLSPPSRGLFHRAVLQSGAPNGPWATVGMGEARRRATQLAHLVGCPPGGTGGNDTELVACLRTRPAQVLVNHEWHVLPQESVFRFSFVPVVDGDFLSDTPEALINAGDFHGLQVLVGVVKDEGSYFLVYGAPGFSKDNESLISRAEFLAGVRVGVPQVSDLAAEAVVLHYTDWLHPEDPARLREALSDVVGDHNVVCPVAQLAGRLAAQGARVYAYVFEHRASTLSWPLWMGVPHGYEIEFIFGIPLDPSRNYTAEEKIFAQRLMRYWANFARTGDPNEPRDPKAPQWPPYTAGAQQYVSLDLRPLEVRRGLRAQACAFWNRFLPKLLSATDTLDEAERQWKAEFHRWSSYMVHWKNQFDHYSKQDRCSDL

Experiments:
[1] = biological target: T1, human butyrylcholinesterase (hBChE) (Homo sapiens, UniProt P06276); assay: Progressive inhibition of hBChE by organophosphorus pesticides (Ellman method); format: biochemical
T1 construct: hBChE derived from purified human plasma; from tissue; host or cells: human plasma

[2] = biological target: T2, human acetylcholinesterase (hAChE) (Homo sapiens, UniProt P22303); assay: Progressive inhibition of hAChE by organophosphorus pesticides (Ellman method); format: biochemical
T2 construct: made in house

Work on `CCOP(=O)(NC(C)C)Oc1ccc(SC)c(C)c1` (centres unmarked) [Fenamiphos, fenamiphos] yielded a Ki [1] of 4.38 ± 1.21 µM and a Ki [2] of 52.1 ± 6.19 µM.
